# Measured values: paper PMC10163288
# The list shows a part of the results.
# B1: il2ra_site1_2b5i_sap_16_mot_HHH_b1_00326_af2_000000000_0001_40_56_H_._HHH_b1_04725_0001_0000500021_0000001_0_0001_af2pred_0001_af2pred (protein)
# chain: SSSSDAAKEAARLFREANEAYRNGNPEEARKLLEKAEELAEEGNNKSLVRAIRDALEQLESSSSS
# B2: il2ra_site2_3nfp_normal_mot_HHH_b2_03978_000000149_0001_1_20_H_._HHH_b2_05280_0001_0000700015_0000001_0 (protein)
# chain: SSSSDEEEELEELRRQLEEAVEEGDPEAVAELALKASALAFELGDHEFFAEISEIFHRFFSSSSS
# B3: il2ra_site1_3nfp_normal_mot_HHH_b2_04693_000000156_0001_1_17_H_._145601744709a037d9715a1ced05e5a7_0001_1_0001_0000200010_0000001_1 (protein)
# chain: SAEERVKEAKELVPPELQELLERALELAHKRQDPKLAELLIRAVAAIQLGDPEKAEEVLKELEER
# B4: il2ra_site2_2erj_sap_19_mot_87b7e031a888ead1881e674a44c3f2a3_0001_1_af2_000000022_0001_37_50_H_._HHH_b2_05123_0001_0000200011_0000001_0_0001 (protein)
# chain: SSSSNEKLKRLYELANRLLKLVSEGDEEEFQEVFEELERLIEELNSDTARRFLERLRRLLHSSSS
# B5: il2ra_site1_2b5i_normal_mot_HHH_b2_04910_000000118_0001_1_19_H_._HHH_b1_01775_0001_0000400021_0000001_0 (protein)
# chain: SSSSSDSEEAQELFKEADELDRQGDEEEARRVLEQALELAEEGGSPQLFKMIESALRQLGSSSSS
# B6: il2ra_site1_2b5i_normal_mot_HHH_b2_04910_000000118_0001_1_19_H_._HHH_b2_00346_af2_0001_0000700011_0000001_0_af2pred_dldesign_0_af2pred (protein)
# chain: SSSSSPEIRRALELFRQAEAAFKAGDEATARALLEEALKLVEAAGAKLLAKIIKNALEQIGSSSS
# B7: il2ra_site2_3nfp_normal_mot_49a7c9051cacde34b31d84fabeb7f3ea_0001_af2_000000030_0001_39_52_H_._HHH_b2_06514_af2_0001_0000400008_0000001_1 (protein)
# chain: SSSSDEEEEELEKLQELLKRLKEEGDRFELLRVLLRASQLAAKLGDREAVRIELKLYEELASSSS
# B8: il2ra_site1_1z92_sap_24_mot_HHH_b1_05516_af2_000000202_0001_21_38_H_._HHH_b1_02137_0001_0000200010_0000001_0_0001 (protein)
# chain: DEKEEIERLLREAGAPPELIELVEEVFEIQAQYSERAARFVVEQVERKVRKGNPEKAEKLLRKLL
# B9: il2ra_site2_3nfp_sap_17_mot_HHH_b2_06150_000000217_0001_39_53_H_._HHH_b2_05191_0001_0000100001_0000001_0_0001 (protein)
# chain: SSSKAEEYVEAALELARDALEAGNPELAKRHIHVAEQVAELLGDEELEELLKELLEEVERGSSSS
# B10: il2ra_site1_1z92_sap_9_mot_32063319e58c7a3ce97db74413982e08_0001_1_000000206_0001_18_33_H_._HHH_b2_02076_0001_0000300012_0000001_0_0001 (protein)
# chain: SSSSNLEELIRFLFEDLELLLEHGNEHAFKWALELLERLAKRHNDEEAEELVRRIEELRENSSSS
# B11: il2ra_site2_2erj_sap_13_mot_HHH_b1_03114_000000021_0001_1_16_H_._HHH_b1_00339_0001_0000900017_0000001_0_0001 (protein)
# chain: SSSSLRELYELRARILELLARGDLEEAERLLEELRKLAEETNSPNVEEAVEDLERRIREDLSSSS
# B12: il2ra_site1_1z92_normal_mot_01209686ea234b34325f918445e6eade_0001_af2_000000154_0001_18_33_H_._HHH_b1_01979_0001_0000200020_0000001_0_af2pred_0001_af2pred_1_swa … (protein)
# chain: SSSSDELERFAQEVVEELVEEFGLDEHDKEALEKAAELAVKAGLSERAIELALRRAAELASSSSS
# B13: il2ra_site2_3nfp_sap_20_mot_ems_3hM_287_af2_000000177_0001_46_64_H_._HHH_b1_03267_af2_0001_0000400046_0000001_0_0001 (protein)
# chain: SSSSSDHEFYERVLELLKEANKISDPEERREVLEEAERLAEEAGSEVLKRSVEWVAKLLNSSSSS
# B14: il2ra_site2_2erj_normal_mot_HHH_b1_06259_af2_000000246_0001_1_17_H_._HHH_b1_02157_af2_0001_0000300038_0000001_0 (protein)
# chain: SSSSDREEEIVREIVEELGLDEYVQLFLELTARFALEAGASEEEVERDLRESAEIFEEAESSSSS
# B15: il2ra_site1_2b5i_normal_mot_HHH_b2_04910_000000118_0001_1_19_H_._HHH_b1_04704_af2_0001_0000100014_0000001_1_af2pred_dldesign_0_af2pred (protein)
# chain: SSSSSAETEEALRLFLEADKLFKEGKLEETKELLEKALELAKKGKDNTLVRMIESALEDLESSSS
# B16: il2ra_site2_2erj_sap_20_mot_12d8a9d2629acc90dc040184e432c6f0_0001_000000022_0001_16_30_H_._HHH_b1_00265_0001_0000200004_0000001_0_0001 (protein)
# chain: SSSSDVEEEVRRLLEEAQELREEGDPKKVLELLLEAFELAMENRDEEAAKLINRVFEELDKSSSS
# B17: il2ra_site1_2b5i_normal_mot_HHH_b2_04910_000000118_0001_1_19_H_._HHH_b2_04254_0001_0000100007_0000001_0_af2pred_0001_af2pred (protein)
# chain: SSSSDEAQEELRELLEEADELFKQGNDEEARRVLEKAEELAEELNSESAFRSVEAMLRILSSSSS
# B18: il2ra_site1_3nfp_normal_mot_HHH_b1_01417_af2_000000204_0001_1_19_H_._HHH_b1_00894_0001_0000700059_0000001_0 (protein)
# chain: SSSSNAAERFTEEAERLAKELGDEELVELLRELLEEAQEKGDARVARELIKVIAKVQLKYRSSSS
# Target: il2ra, P01589
# Experiment: yeast display titration
row,Binder,apparent Kd
1,B1,inactive: no binding seen
2,B2,inactive: no binding seen
3,B3,inactive: no binding seen
4,B4,inactive: no binding seen
5,B5,inactive: no binding seen
6,B6,inactive: no binding seen
7,B7,inactive: no binding seen
8,B8,inactive: > 1.56 nM
9,B9,inactive: no binding seen
10,B10,inactive: no binding seen
11,B11,inactive: no binding seen
12,B12,inactive: no binding seen
13,B13,inactive: > 271 nM
14,B14,inactive: no binding seen
15,B15,inactive: no binding seen
16,B16,inactive: no binding seen
17,B17,inactive: no binding seen
18,B18,inactive: no binding seen

# Some of the entries above, set out differently:
row	Binder	apparent Kd
5	B5	inactive: no binding seen
7	B7	inactive: no binding seen
9	B9	inactive: no binding seen
